Assay results: PubChem BioAssay AID2685 (National Center for Advancing Translational Sciences (NCATS), 2010)
The other results are listed elsewhere or left out. These are further read-outs of the screen, such as a control signal, another cell line or another target. No call is given for them. Compounds called inactive in the main read-out are mostly missing here. Potencies come from curve fits of mixed quality, noted in brackets.

Assay: qHTS Assay for Lipid Storage Modulators in Drosophila S3 Cells;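 as to cell number change: cells counted by Cell Tracker Red CMTPX staining in the red channel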
Settings: BODIPY lipid droplet fluorescence, 18-24 h; for cell number change: measured here: cell count max response, cells fed with added oleic acid
Summary of the method: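 Drosophila S3 cells got compounds at several concentrations plus oleic acid (400 uM solution). Laser-scanning cytometry with 488 nm excitation read lipid droplets at 500-530 nm and cells at 575-640 nm. Percent activity was relative to 20 uM Triacsin C.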

[1] = measured here: lipid fluorescence (Fed channel) AC50, cells fed with added oleic acid
[2] = measured here: cell number channel AC50, cells fed with added oleic acid

| SMILES | cell number change | AC50 [1] | AC50 [2] |
| --- | --- | --- | --- |
| Cc1noc(C(=O)NCc2ccc(F)cc2)c1Cl | 11.7% |  |  |
| FC(F)(F)c1nnc2ccc(N3CCN(c4ccccc4)CC3)nn12 |  | 3.26 µM [rising, partial curve, poor fit] |  |
| Cc1nnc(NC(=O)c2ccccc2-c2ccccc2C(=O)O)s1 | -0.32% |  |  |
| COc1ccc(S(=O)(=O)N(Cc2ccco2)Cc2cc3ccccc3[nH]c2=O)cc1 | -4.42% |  |  |
| Cc1cc(=O)[nH]c(SC(C)C(=O)Nc2cccc3ccccc23)n1 (configuration not stated) | 18.9% |  |  |
| CCOC(=O)CC(C(=O)OCC)P(=O)(c1ccccc1)c1ccccc1 (configuration not stated) | -9.76% | 29.1 µM [rising, single point] |  |
| CCCCN(CCCC)CCNC(=O)c1ccc2nc(-c3ccccc3NC(C)=O)c(=O)[nH]c2c1 | 6.79% |  | 6.51 µM [falling, partial curve, poor fit] |
| CC(C)(CNC(=O)c1ccc(S(=O)(=O)Nc2cccc(C(F)(F)F)c2)cc1)N1CCOCC1 | 11.5% | 29.1 µM [rising, single point] |  |
| COc1cc(C(=O)NC2CCCc3ccccc32)ccc1OCC(=O)Nc1ccc(F)cc1 (configuration not stated) | 31.1% | 2.06 µM [rising, single point] | 3.66 µM [rising, single point] |
| COc1ccc(-c2cc3onc(-c4c(Cl)cccc4Cl)c3c(=O)n2C)cc1 | 6.6% | 29.1 µM [falling, single point] |  |
| O=S(=O)(NC1CC1)c1ccc(S(=O)(=O)N2CCc3ccccc32)cc1 | -24.5% | 29.1 µM [rising, single point] |  |
| CC(C)C[C@@]12C(=O)N(c3ccc(Br)cc3)C(=O)N1[C@H](c1ccc(Br)cc1)[C@@H]1C(=O)N(C(C)(C)C)C(=O)[C@@H]12 | 40.1% |  | 11.6 µM [rising, partial curve] |
| C/C(CC(=O)Nc1ccccn1)=N\NC(=O)c1ccccc1O | 17.5% | 6.51 µM [rising, single point] |  |
| CCOc1cc(-c2nnc(-c3ccco3)o2)cc(OCC)c1OCC | -9.45% |  |  |
| COCCNCc1ccc(C(C)C)cc1 | 41% | 6.51 µM [falling, single point] | 29.1 µM [rising, single point] |
| CCCCC(=O)Nc1cccc(NC(=O)c2ccc3c(c2)OCO3)c1 | 5.87% | 0.00517 µM [rising, full curve, poor fit] |  |
| O=C(Nc1ccnn1C1CCN(CC2CC=CCC2)CC1)c1ccccc1Cl (configuration not stated) | -1.83% | 29.1 µM [rising, single point] |  |
| O=C(O)CSc1c[nH]c2ccccc12 | 25.8% | 0.0326 µM [falling, full curve, poor fit] |  |
| CN(CCCS(=O)(=O)[O-])c1ccc(/C=C/c2ccc3ccccc3[n+]2C)cc1 | 16.9% | 8.2 µM [rising, partial curve] |  |
| N#CC1=C(N)C2=CCCC[C@H]2[C@H](c2cccc(F)c2)C1(C#N)C#N | -21.7% | 23.1 µM [falling, single point] |  |

| SMILES | cell number change | AC50 [1] | AC50 [2] |
| --- | --- | --- | --- |
| O=C(COc1ccccc1N1C(=O)c2ccccc2C1=O)c1ccc(Cl)cc1 | 92.9% |  | 23.1 µM [rising, single point] |
| COc1ccc(NC(=O)/C(Cl)=C(/Cl)S(=O)(=O)Cc2ccccc2)cn1 | -84.6% | 0.651 µM [falling, partial curve, poor fit] | 29.1 µM [falling, single point] |
| COc1cc(OC)cc(C(=O)NCC2CCCN(C(=O)c3csc(C)n3)C2)c1 (configuration not stated) | 14.4% | 29.1 µM [falling, single point] |  |
| CCN1CCN(c2ccc(S(=O)(=O)N3CCOCC3)cc2NC(=O)/C=C/c2cccc(OC)c2OC)CC1 | 60.6% |  | 14.6 µM [rising, partial curve] |
| CCn1c(CNC(=O)c2cccc(C)c2)nnc1SCC(=O)NC1CCCC1 | -5.56% | 11.6 µM [falling, single point] |  |
| O=C(c1cn(Cc2ccccc2)nc1-c1cccnc1)N1CCN(Cc2ccccc2)CC1 | 3.63% | 0.116 µM [falling, full curve, poor fit] |  |
| COc1ccc(N(CC(=O)NC2CCCCC2)C(=O)c2ccc(C)s2)cc1OC | 10% |  |  |
| COc1ccc(Cl)cc1NC(=O)CSc1nnc(C2CC2)n1N |  | 0.58 µM [falling, partial curve, poor fit] |  |
| c1ccc(-c2ccccc2-n2cnnn2)cc1 |  | 5.8 µM [falling, partial curve] | 5.8 µM [falling, single point] |
| CSCC[C@H](NC(=O)Nc1ccc(C)cc1)C(=O)O | -7.2% |  |  |
| CC(C)C[C@H](NS(=O)(=O)c1ccc(Br)cc1)C(=O)O | -53.9% | 29.1 µM [falling, single point] | 14.6 µM [falling, partial curve] |
| O=C(Cn1nc([N+](=O)[O-])nc1Br)NC1CCCCC1 | -23.8% |  | 0.164 µM [falling, full curve, poor fit] |
| O=C(O)CC/C(=N\Nc1ccc(Cl)cc1)c1cccs1 | -3.6% | 32.6 µM [falling, single point] |  |
| CCOP(=O)(c1ccc(N(C)C)cc1)C(O)c1ccc(OC)cc1 (configuration not stated) |  | 6.51 µM [falling, single point] |  |
| CCOC(=O)N1CCN(C(=O)CNS(=O)(=O)c2cccs2)CC1 | -19.2% |  |  |
| COC(=O)c1cc(NC(=O)c2cccs2)ccc1N1CCOCC1 | -33.8% | 16.4 µM [falling, single point] | 23.1 µM [falling, single point] |
| O=C(NCc1ccccc1CN1CCCC1)c1ccc(OCc2cscn2)cc1 | -4.91% |  |  |
| CCc1noc(C)c1C(=O)Nc1nc2c(C)cc(C)cc2s1 | 34% | 3.66 µM [rising, full curve] | 3.26 µM [rising, full curve] |
| COc1ccc(OCC(O)Cn2c(N3CCCCC3)nc3c2c(=O)[nH]c(=O)n3C)cc1 (configuration not stated) | -19.1% | 29.1 µM [falling, single point] |  |

Reprinted at random: two compounds from above, in no set order.

| SMILES | cell number change | AC50 [1] | AC50 [2] |
| --- | --- | --- | --- |
| CCn1c(CNC(=O)c2cccc(C)c2)nnc1SCC(=O)NC1CCCC1 | -5.56% | 11.6 µM [falling, single point] |  |
| COc1cc(OC)cc(C(=O)NCC2CCCN(C(=O)c3csc(C)n3)C2)c1 (configuration not stated) | 14.4% | 29.1 µM [falling, single point] |  |
